According to PMC10471174:
These are yes or no findings as the source states them, for the method shown. Binding seen in cells or lysates may run through a third protein. Here binding means that the protein was enriched with, or labelled near, the bait; the list need not be complete. Sequences can lack the tags named with a protein.

By UniProt entry, the sequences of proteins in these tests, tags left out.
UniProt Q03164: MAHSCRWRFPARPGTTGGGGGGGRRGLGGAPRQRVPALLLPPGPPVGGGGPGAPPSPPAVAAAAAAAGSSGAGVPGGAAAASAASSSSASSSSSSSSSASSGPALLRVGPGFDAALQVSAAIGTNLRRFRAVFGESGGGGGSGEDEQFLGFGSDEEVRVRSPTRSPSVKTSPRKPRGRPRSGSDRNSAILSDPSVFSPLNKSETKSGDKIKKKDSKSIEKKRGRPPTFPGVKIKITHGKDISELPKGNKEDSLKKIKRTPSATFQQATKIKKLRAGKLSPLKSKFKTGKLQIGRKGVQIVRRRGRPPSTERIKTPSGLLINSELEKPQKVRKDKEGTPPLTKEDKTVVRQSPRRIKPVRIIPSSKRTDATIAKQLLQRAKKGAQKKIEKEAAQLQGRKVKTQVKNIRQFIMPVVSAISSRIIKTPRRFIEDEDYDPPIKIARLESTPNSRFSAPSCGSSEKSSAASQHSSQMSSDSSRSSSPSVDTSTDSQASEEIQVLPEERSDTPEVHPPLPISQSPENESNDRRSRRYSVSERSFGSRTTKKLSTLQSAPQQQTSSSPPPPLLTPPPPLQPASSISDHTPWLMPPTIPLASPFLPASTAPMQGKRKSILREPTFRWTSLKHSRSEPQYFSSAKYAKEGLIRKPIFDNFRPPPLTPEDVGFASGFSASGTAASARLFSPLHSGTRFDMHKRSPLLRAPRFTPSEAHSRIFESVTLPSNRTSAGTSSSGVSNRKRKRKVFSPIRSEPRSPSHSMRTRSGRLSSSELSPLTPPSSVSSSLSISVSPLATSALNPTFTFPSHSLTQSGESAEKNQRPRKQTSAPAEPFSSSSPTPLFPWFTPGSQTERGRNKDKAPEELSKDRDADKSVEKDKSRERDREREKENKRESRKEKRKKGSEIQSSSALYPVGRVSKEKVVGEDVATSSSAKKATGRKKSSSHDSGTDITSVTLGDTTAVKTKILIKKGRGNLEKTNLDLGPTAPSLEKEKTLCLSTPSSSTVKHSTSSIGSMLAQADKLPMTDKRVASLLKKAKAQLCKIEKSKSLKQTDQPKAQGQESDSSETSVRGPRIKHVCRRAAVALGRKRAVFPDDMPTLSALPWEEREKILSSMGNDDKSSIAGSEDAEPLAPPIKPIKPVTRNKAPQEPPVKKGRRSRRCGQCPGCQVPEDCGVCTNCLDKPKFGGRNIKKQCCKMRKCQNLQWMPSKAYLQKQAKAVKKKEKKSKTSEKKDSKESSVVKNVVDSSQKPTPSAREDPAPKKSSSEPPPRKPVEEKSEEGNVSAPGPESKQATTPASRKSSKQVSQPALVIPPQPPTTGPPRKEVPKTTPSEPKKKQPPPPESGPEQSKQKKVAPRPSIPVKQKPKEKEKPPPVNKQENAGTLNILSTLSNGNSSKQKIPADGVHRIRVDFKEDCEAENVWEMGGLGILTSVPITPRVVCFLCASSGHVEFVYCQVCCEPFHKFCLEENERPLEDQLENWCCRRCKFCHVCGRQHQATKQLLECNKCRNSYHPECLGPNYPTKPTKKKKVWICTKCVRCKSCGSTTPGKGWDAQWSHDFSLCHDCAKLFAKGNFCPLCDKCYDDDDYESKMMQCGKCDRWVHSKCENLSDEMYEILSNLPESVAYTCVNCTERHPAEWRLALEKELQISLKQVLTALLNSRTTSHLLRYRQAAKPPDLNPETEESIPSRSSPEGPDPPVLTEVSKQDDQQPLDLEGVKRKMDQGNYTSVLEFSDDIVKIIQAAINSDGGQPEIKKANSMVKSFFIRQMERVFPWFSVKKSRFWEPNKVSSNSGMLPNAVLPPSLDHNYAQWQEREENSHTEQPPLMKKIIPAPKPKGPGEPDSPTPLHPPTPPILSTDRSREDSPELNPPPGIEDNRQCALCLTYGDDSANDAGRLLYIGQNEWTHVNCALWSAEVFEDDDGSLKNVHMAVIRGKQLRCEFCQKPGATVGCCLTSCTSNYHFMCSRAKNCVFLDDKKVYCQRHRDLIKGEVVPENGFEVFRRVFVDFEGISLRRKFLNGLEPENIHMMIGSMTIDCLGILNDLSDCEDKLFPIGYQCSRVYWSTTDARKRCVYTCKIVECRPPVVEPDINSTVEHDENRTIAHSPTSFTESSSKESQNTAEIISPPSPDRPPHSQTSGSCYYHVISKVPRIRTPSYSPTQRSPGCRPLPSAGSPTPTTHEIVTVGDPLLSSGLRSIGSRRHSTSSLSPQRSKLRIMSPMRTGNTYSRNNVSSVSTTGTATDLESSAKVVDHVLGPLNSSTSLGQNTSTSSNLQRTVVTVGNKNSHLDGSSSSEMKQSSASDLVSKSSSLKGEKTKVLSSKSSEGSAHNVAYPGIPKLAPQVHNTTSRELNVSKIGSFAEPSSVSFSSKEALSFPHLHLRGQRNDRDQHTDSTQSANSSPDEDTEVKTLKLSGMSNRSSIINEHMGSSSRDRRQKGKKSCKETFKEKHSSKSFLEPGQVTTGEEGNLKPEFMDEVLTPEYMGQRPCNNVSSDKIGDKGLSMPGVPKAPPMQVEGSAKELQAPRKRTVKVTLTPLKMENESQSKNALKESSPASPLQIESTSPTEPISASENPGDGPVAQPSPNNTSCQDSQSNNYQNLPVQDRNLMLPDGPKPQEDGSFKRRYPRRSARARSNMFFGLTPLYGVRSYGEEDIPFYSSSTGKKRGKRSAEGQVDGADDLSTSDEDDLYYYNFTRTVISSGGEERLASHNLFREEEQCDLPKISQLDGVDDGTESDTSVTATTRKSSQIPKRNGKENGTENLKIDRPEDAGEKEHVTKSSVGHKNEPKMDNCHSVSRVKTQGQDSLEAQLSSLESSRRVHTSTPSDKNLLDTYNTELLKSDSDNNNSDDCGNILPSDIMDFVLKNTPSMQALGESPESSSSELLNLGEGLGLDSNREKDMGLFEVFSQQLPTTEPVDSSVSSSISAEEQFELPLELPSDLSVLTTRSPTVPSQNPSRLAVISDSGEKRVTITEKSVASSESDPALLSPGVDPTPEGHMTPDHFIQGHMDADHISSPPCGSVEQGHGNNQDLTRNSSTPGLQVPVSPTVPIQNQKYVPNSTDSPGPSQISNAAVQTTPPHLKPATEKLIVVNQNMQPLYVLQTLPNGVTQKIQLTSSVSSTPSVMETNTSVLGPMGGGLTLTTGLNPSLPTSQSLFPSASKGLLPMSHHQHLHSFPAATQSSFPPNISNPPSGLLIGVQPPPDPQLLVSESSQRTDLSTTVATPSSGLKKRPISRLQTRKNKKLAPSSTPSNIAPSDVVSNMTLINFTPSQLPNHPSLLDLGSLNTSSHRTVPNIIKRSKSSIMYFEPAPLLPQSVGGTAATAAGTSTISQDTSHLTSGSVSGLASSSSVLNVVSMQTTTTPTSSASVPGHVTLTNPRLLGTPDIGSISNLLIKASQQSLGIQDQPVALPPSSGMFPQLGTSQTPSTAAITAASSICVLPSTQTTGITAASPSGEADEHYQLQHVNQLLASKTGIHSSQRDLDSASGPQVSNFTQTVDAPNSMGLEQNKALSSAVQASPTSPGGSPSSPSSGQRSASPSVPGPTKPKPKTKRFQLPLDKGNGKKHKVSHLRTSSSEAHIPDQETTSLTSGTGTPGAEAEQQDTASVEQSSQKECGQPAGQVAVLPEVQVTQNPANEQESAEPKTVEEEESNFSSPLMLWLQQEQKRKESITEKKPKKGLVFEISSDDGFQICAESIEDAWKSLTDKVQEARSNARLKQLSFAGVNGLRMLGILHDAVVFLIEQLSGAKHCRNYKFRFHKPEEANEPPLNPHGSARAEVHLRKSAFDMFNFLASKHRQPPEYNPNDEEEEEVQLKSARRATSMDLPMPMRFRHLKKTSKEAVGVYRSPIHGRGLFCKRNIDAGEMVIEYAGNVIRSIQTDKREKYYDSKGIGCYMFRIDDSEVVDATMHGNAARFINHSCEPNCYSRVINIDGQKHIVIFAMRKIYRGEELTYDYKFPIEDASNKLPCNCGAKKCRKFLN

Molecular target: T1, GST-SAP30 fusion protein (human) (UniProt O75446)
T1 sequence: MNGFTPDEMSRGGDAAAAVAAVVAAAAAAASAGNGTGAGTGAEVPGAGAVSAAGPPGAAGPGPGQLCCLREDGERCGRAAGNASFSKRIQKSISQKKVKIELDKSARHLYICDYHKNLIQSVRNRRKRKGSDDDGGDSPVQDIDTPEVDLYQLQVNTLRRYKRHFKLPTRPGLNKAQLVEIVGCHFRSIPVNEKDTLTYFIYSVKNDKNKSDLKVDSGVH
Assay: affinity purification with mass spectrometry; GST-SAP30 immobilized on glutathione-Sepharose beads, incubated with nuclear lysates of MDA-MB-231 cells for 6 hours at 4°C; 3 independent experiments; only the target purified

binding: binds
Substance: MLL1 (KMT2A), endogenous in MDA-MB-231 and SUM159 cells (from UniProt Q03164 1-3969) (enzyme)
